The source gives many values for each of these; only a part stands here.
System: peripheral blood mononuclear cells (PBMC)
Assay: Microarray analysis (3), dose-dependent intron expression in PBMC at 3, 10, 30 nM, Table 5
Type: cell-based, human
Protocol: PBMC was suspended in RPMI1640 medium (containing 10% FBS, penicillin, and streptomycin) to 5×10^6 cells/ml and 1 ml of the suspension was plated per well of a 24-well plate. Immediately, 111 μl of 10 times-concentrated (8E,12E,14E)-7-((4-cycloheptylpiperazin-1-yl)carbonyl)oxy-3,6,16,21-tetrahydroxy-6,10,12,16,20-pentamethyl-18,19-epoxytricosa-8,12,14-trien-11-olide was added to the well (six wells per each concentration tested). The cells were then cultured in an incubator with 5% carbon dioxide gas at 37° C. Three hours later, the supernatant was collected and centrifuged at 1500 rpm for five minutes. TRI reagent (SIGMA) (1 ml) was added to each well of the plate from which the supernatant was removed to harvest the cells, which was added to the centrifuged pellet to dissolve. RNA was purified in accordance with the protocol of TRI reagent. RNA was further purified using RNeasy (QIAGEN) and, in accordance with the protocol, DNaseI was added to the samples during the procedure. Absorbance at 260 nm was measured to quantify an amount of RNA.
Ribosomal RNA was removed from 1 μg of each total RNA of control cells (n=3) and cells with the treatment (n=3) using RiboMinus Human/Mouse Transcriptome Isolation Kit (Invitrogen). Single stranded cDNA synthesis, double stranded cDNA synthesis, cRNA synthesis, second single stranded cDNA synthesis, cDNA fragmentation, and cDNA labeling in order were carried out for total RNA from which ribosomal RNA was removed, using GeneChip Whole Transcript Sense Target Labeling and Control Reagents (Affymetrix) to make a cDNA probe. Subsequently, the cDNA probe was used for hybridization with Human Exon 1.0 ST Array (Affymetrix). The array was washed and stained, and luminescence intensity was measured by a scanner.
The expression level of the probe set and the gene was quantified by using Expression Console Ver. 1.0 (Affymetrix) with Summarization Method and Normalization Method being set to “Median polish as used in RMA” and “None”, respectively. The expression level of the probe was normalized with that of the gene.
Probe sets showing that the normalized change in the level expression of the probe set in the group with the treatment at 30 nM was more than 5 times; the expression level of the probe set and the gene in the group with the treatment at 30 nM was more than 100; and probe set annotation was “extended, full, free”, were picked out. Regression analysis was performed with the probe sets extracted for the control group, the group with the treatment at 3 nM, the group with the treatment at 10 nM, and the group with the treatment at 30 nM to determine a p and q value for the slope of regression formula. A gene containing the probe sets with the q value of less than 5% was determined as a candidate gene with increased expression level of the intron regions (Table 5).
In Table 5, for the gene evaluated, gene name (Gene Name), abbreviated name (Gene Symbol), accession number (Accession), alias name (Synonym), transcription cluster number in Human Exon 1.0 ST Array (Human Exon 1.0 ST Array Transcription Cluster ID), chromosome number (Chromosome), type of strand (Strand), start region (Start), stop region (Stop), and change in expression level per 1 nM (Fold Change/nM) were respectively shown.

Compound: CCC(O)C(C)C1OC1CC(C)(O)/C=C/C=C(\C)C1OC(=O)CC(O)CCC(C)(O)C(OC(=O)N2CCN(C3CCCCCC3)CC2)/C=C/C1C (centres unmarked) [E7107, (8E,12E,14E)-7-((4-cycloheptylpiperazin-1-yl)carbonyl)oxy-3,6,16,21-tetrahydroxy-6,10,12,16,20-pentamethyl-18,19-epoxytricosa-8,12,14-trien-11-olide]
- Fold Change/nM (intron expression of gene GPR132 (cluster 3581404), slope over control, 3, 10, 30 nM): 1.04 nM⁻¹
- Fold Change/nM (intron expression of gene HCK (cluster 3881651), slope over control, 3, 10, 30 nM): 1.04 nM⁻¹
- Fold Change/nM (intron expression of gene ICAM1 (cluster 3820443), slope over control, 3, 10, 30 nM): 1.04 nM⁻¹
- Fold Change/nM (intron expression of gene IQGAP1 (cluster 3608113), slope over control, 3, 10, 30 nM): 1.04 nM⁻¹
- Fold Change/nM (intron expression of gene KIAA0368 (cluster 3220513), slope over control, 3, 10, 30 nM): 1.04 nM⁻¹
- Fold Change/nM (intron expression of gene KIAA1468 (cluster 3791168), slope over control, 3, 10, 30 nM): 1.04 nM⁻¹
- Fold Change/nM (intron expression of gene KIAA1967 (cluster 3089597), slope over control, 3, 10, 30 nM): 1.04 nM⁻¹
- Fold Change/nM (intron expression of gene KLHL18 (cluster 2621275), slope over control, 3, 10, 30 nM): 1.04 nM⁻¹
- Fold Change/nM (intron expression of gene MTF2 (cluster 2346934), slope over control, 3, 10, 30 nM): 1.04 nM⁻¹
- Fold Change/nM (intron expression of gene NKTR (cluster 2619344), slope over control, 3, 10, 30 nM): 1.04 nM⁻¹
- Fold Change/nM (intron expression of gene NOL9 (cluster 2394784), slope over control, 3, 10, 30 nM): 1.04 nM⁻¹
- Fold Change/nM (intron expression of gene NOP5/NOP58 (cluster 2523144), slope over control, 3, 10, 30 nM): 1.04 nM⁻¹
- Fold Change/nM (intron expression of gene NUBP1 (cluster 3647956), slope over control, 3, 10, 30 nM): 1.04 nM⁻¹
- Fold Change/nM (intron expression of gene OGDH (cluster 2999948), slope over control, 3, 10, 30 nM): 1.04 nM⁻¹
- Fold Change/nM (intron expression of gene PAPOLA (cluster 3550392), slope over control, 3, 10, 30 nM): 1.04 nM⁻¹
- Fold Change/nM (intron expression of gene PITPNB (cluster 3956290), slope over control, 3, 10, 30 nM): 1.04 nM⁻¹
- Fold Change/nM (intron expression of gene PSMC4 (cluster 3833291), slope over control, 3, 10, 30 nM): 1.04 nM⁻¹
- Fold Change/nM (intron expression of gene RBM6 (cluster 2622359), slope over control, 3, 10, 30 nM): 1.04 nM⁻¹
- Fold Change/nM (intron expression of gene SFRS10 (cluster 2709062), slope over control, 3, 10, 30 nM): 1.04 nM⁻¹
- Fold Change/nM (intron expression of gene SIN3A (cluster 3633403), slope over control, 3, 10, 30 nM): 1.04 nM⁻¹
- Fold Change/nM (intron expression of gene SRCAP (cluster 3656418), slope over control, 3, 10, 30 nM): 1.04 nM⁻¹
- Fold Change/nM (intron expression of gene TM9SF3 (cluster 3301857), slope over control, 3, 10, 30 nM): 1.04 nM⁻¹
- Fold Change/nM (intron expression of gene TOMM70A (cluster 2686371), slope over control, 3, 10, 30 nM): 1.04 nM⁻¹
- Fold Change/nM (intron expression of gene UBE2B (cluster 2829275), slope over control, 3, 10, 30 nM): 1.04 nM⁻¹
- Fold Change/nM (intron expression of gene XPO4 (cluster 3504434), slope over control, 3, 10, 30 nM): 1.04 nM⁻¹
- Fold Change/nM (intron expression of gene XRN2 (cluster 3879467), slope over control, 3, 10, 30 nM): 1.04 nM⁻¹
- Fold Change/nM (intron expression of gene YIPF3 // C6orf154 (cluster 2954646), slope over control, 3, 10, 30 nM): 1.04 nM⁻¹
- Fold Change/nM (intron expression of gene ZNF410 (cluster 3543884), slope over control, 3, 10, 30 nM): 1.04 nM⁻¹
- Fold Change/nM (introns of gene AAK1, regression over control, 3, 10, 30 nM): 1.06 nM⁻¹
- Fold Change/nM (introns of gene ABCA1, regression over control, 3, 10, 30 nM): 1.08 nM⁻¹
- Fold Change/nM (introns of gene ABL2, regression over control, 3, 10, 30 nM): 1.06 nM⁻¹
- Fold Change/nM (introns of gene ACTB, regression over control, 3, 10, 30 nM): 1.04 nM⁻¹
- Fold Change/nM (introns of gene ADAM19, regression over control, 3, 10, 30 nM): 1.05 nM⁻¹
- Fold Change/nM (introns of gene AFF4, regression over control, 3, 10, 30 nM): 1.06 nM⁻¹
- Fold Change/nM (introns of gene AGPAT3, regression over control, 3, 10, 30 nM): 1.04 nM⁻¹
- Fold Change/nM (introns of gene AHR, regression over control, 3, 10, 30 nM): 1.06 nM⁻¹
- Fold Change/nM (introns of gene AHSA1, regression over control, 3, 10, 30 nM): 1.05 nM⁻¹
- Fold Change/nM (introns of gene AKNA, regression over control, 3, 10, 30 nM): 1.06 nM⁻¹
- Fold Change/nM (introns of gene ALDOA, regression over control, 3, 10, 30 nM): 1.04 nM⁻¹
- Fold Change/nM (introns of gene ANKRD17, regression over control, 3, 10, 30 nM): 1.06 nM⁻¹
- Fold Change/nM (introns of gene AP3B1, regression over control, 3, 10, 30 nM): 1.07 nM⁻¹
- Fold Change/nM (introns of gene ARF4, regression over control, 3, 10, 30 nM): 1.04 nM⁻¹
- Fold Change/nM (introns of gene ARFGEF1, regression over control, 3, 10, 30 nM): 1.06 nM⁻¹
- Fold Change/nM (introns of gene ARID4B // RBM34, regression over control, 3, 10, 30 nM): 1.06 nM⁻¹
- Fold Change/nM (introns of gene ATG9A // ABCB6, regression over control, 3, 10, 30 nM): 1.05 nM⁻¹
- Fold Change/nM (introns of gene ATP2B1, regression over control, 3, 10, 30 nM): 1.06 nM⁻¹
- Fold Change/nM (introns of gene ATP6V1B2, regression over control, 3, 10, 30 nM): 1.06 nM⁻¹
- Fold Change/nM (introns of gene ATP13A3, regression over control, 3, 10, 30 nM): 1.07 nM⁻¹
- Fold Change/nM (introns of gene B4GALT5, regression over control, 3, 10, 30 nM): 1.08 nM⁻¹
- Fold Change/nM (introns of gene BACH2, regression over control, 3, 10, 30 nM): 1.06 nM⁻¹
- Fold Change/nM (introns of gene BCL11B, regression over control, 3, 10, 30 nM): 1.05 nM⁻¹
- Fold Change/nM (introns of gene BCLAF1, regression over control, 3, 10, 30 nM): 1.05 nM⁻¹
- Fold Change/nM (introns of gene BLR1, regression over control, 3, 10, 30 nM): 1.04 nM⁻¹
- Fold Change/nM (introns of gene BNIP2, regression over control, 3, 10, 30 nM): 1.06 nM⁻¹
- Fold Change/nM (introns of gene BOLA1, regression over control, 3, 10, 30 nM): 1.04 nM⁻¹
- Fold Change/nM (introns of gene BXDC2, regression over control, 3, 10, 30 nM): 1.04 nM⁻¹
